Values quoted from earlier work, collected in US20070104787A1, “Carboxyalkyl cellulose esters for sustained delivery of pharmaceutically active substances” (priority 2005, published 2007).
Where two headings read alike, the source gives them in different places.

Details: cited from earlier work

**Q.** Which solubility of ibuprofen (pH 1.2) does the source give for `CC(C)Cc1ccc(C(C)C(=O)O)cc1` (centres unmarked) [ibuprofen] here?
**A.** highly insoluble

**Q.** What about the solubility of ibuprofen (pH 6.8) of the same molecule?
**A.** very soluble
